Assay results taken from article PMC4884989.

Tests used:
[1] = biological target: T1, HA-Tal (TSG101-associated ligase), in vitro translated (UniProt Q6UWE0); assay: pull-down; in vitro competitive binding, competitor against Tal: in vitro translated TSGΔ154-1054 in increasing amounts and in vitro translated HA-Tal, read out as HA-Tal left on GST-TSG101 beads; buffer A, 4°C, 2 h
T1 sequence: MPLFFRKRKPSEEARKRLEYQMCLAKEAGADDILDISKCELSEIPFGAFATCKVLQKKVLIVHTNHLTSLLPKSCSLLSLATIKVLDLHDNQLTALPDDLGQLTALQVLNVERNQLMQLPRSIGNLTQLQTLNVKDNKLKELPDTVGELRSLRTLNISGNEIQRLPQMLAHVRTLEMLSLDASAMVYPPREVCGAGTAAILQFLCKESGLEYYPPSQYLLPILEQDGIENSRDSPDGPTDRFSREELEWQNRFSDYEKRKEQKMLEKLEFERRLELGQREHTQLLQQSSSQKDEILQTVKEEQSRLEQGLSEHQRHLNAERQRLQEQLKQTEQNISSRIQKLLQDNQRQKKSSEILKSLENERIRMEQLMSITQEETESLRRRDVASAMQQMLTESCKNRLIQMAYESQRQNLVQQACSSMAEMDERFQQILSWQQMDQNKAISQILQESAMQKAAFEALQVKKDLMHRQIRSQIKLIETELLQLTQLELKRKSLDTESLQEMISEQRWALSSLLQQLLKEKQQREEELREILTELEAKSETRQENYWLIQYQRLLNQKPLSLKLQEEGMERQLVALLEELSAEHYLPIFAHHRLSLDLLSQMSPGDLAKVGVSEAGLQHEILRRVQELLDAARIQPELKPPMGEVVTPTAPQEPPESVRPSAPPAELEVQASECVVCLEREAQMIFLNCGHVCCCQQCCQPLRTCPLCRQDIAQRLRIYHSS

GST-TSGΔ154-1054 (human) = assay: pull-down; GST fusion bound to glutathione-Sepharose, in vitro translated prey; buffer A (1% Triton X-100, 20 mM Tris-HCl, 140 mM NaCl, 1 mM EGTA, 10% glycerol, 1.5 mM MgCl2, 1 mM DTT, pH 8.0), 2 h at 4°C; washed with buffer B (20 mM Tris-HCl, 150 mM NaCl, 1% NP-40, pH 8.0); western blot; only the target purified

TSGΔ154-1054, in vitro translated (human)
binding [1]: binds

B1: HA-Tal (TSG101-associated ligase), in vitro translated (enzyme, UniProt Q6UWE0 1-723)
chain: T1 sequence
binding (GST-TSGΔ154-1054 (human)): binds

These are yes or no findings as the source states them, for the method shown. In cells and extracts the contact can be indirect. Binding can be weak; no strength is given. Tags and fused reporters may be left off the sequences shown.
